Test results reported in paper PMC4356511.
Changes are numbered by the printed parent chain. Names may count otherwise. These are yes or no findings as the source states them, for the method shown. In cells and extracts the contact can be indirect. Some entries that bind do so weakly or less than the wild type. Tags and fused reporters may be left off the sequences shown. Each block holds one binder with its values, some of them ahead of it.

Chains of the proteins cited; added tags and fusions are not shown.
UniProt Q61602: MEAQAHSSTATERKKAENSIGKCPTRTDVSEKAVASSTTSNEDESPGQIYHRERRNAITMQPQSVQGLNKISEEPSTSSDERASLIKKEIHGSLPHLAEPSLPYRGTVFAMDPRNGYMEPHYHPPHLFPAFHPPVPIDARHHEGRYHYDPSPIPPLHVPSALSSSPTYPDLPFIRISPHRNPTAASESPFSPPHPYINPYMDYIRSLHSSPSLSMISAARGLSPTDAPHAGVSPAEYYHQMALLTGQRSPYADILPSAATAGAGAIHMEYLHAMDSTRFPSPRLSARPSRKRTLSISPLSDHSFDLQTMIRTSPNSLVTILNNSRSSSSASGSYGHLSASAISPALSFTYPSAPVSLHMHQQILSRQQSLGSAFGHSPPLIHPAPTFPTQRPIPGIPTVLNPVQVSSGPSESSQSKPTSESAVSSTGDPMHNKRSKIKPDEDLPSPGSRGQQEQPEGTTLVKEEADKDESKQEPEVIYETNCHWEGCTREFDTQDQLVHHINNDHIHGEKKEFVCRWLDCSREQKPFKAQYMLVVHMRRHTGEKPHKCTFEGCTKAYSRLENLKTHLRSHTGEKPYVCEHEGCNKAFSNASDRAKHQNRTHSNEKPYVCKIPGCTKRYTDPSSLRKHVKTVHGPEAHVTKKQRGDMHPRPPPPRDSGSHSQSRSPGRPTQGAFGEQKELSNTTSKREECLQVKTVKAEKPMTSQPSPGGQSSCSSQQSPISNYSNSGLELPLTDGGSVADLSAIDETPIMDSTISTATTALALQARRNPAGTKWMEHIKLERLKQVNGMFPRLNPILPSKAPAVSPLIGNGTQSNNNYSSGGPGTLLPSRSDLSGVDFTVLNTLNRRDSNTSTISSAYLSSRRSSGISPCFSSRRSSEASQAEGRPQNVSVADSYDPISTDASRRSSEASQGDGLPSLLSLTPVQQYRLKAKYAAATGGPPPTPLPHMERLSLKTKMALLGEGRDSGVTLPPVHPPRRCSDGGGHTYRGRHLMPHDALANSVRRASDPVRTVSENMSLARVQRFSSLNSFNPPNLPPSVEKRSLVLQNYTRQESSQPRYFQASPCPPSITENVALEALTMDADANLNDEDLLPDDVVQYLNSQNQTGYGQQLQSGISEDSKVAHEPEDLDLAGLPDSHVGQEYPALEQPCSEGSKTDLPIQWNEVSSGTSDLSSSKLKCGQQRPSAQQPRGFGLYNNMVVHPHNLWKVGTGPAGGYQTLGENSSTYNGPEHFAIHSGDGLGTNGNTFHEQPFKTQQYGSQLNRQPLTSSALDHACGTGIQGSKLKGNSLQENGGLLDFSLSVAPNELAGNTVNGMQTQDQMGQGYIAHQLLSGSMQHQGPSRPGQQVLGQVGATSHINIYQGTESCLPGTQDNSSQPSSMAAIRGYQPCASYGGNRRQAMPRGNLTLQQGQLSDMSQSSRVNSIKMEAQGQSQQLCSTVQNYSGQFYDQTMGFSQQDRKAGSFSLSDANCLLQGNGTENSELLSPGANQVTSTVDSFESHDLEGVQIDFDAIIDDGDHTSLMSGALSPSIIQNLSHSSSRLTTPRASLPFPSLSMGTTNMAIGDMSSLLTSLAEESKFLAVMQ
UniProt P47806: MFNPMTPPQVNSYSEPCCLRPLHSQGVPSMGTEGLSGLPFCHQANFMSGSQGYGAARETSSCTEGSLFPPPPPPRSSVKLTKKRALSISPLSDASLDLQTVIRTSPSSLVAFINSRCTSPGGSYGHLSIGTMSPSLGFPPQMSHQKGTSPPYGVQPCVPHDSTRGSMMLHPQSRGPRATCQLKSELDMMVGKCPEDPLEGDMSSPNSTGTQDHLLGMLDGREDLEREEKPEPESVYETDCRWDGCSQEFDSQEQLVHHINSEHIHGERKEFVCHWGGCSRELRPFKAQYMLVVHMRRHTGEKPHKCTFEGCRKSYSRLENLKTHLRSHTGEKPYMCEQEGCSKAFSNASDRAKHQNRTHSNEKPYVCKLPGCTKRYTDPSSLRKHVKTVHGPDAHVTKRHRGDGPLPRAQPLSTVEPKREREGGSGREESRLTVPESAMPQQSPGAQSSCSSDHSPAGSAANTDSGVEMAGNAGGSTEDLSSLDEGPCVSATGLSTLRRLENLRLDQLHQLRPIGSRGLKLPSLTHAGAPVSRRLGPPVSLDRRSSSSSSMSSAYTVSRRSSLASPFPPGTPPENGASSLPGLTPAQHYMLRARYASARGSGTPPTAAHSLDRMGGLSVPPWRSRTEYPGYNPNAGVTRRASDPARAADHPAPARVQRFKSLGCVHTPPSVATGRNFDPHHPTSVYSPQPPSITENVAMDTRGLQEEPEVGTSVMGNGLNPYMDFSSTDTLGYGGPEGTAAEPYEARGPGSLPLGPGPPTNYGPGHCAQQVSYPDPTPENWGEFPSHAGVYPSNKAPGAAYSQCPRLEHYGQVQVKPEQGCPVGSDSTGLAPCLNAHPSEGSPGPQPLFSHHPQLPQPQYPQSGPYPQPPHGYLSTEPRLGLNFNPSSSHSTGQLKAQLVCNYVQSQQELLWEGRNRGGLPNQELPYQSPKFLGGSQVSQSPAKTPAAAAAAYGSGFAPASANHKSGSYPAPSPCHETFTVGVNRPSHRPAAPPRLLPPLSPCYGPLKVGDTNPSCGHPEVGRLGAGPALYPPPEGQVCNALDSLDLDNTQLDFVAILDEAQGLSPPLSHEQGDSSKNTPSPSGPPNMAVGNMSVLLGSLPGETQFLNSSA
UniProt Q0VGT2: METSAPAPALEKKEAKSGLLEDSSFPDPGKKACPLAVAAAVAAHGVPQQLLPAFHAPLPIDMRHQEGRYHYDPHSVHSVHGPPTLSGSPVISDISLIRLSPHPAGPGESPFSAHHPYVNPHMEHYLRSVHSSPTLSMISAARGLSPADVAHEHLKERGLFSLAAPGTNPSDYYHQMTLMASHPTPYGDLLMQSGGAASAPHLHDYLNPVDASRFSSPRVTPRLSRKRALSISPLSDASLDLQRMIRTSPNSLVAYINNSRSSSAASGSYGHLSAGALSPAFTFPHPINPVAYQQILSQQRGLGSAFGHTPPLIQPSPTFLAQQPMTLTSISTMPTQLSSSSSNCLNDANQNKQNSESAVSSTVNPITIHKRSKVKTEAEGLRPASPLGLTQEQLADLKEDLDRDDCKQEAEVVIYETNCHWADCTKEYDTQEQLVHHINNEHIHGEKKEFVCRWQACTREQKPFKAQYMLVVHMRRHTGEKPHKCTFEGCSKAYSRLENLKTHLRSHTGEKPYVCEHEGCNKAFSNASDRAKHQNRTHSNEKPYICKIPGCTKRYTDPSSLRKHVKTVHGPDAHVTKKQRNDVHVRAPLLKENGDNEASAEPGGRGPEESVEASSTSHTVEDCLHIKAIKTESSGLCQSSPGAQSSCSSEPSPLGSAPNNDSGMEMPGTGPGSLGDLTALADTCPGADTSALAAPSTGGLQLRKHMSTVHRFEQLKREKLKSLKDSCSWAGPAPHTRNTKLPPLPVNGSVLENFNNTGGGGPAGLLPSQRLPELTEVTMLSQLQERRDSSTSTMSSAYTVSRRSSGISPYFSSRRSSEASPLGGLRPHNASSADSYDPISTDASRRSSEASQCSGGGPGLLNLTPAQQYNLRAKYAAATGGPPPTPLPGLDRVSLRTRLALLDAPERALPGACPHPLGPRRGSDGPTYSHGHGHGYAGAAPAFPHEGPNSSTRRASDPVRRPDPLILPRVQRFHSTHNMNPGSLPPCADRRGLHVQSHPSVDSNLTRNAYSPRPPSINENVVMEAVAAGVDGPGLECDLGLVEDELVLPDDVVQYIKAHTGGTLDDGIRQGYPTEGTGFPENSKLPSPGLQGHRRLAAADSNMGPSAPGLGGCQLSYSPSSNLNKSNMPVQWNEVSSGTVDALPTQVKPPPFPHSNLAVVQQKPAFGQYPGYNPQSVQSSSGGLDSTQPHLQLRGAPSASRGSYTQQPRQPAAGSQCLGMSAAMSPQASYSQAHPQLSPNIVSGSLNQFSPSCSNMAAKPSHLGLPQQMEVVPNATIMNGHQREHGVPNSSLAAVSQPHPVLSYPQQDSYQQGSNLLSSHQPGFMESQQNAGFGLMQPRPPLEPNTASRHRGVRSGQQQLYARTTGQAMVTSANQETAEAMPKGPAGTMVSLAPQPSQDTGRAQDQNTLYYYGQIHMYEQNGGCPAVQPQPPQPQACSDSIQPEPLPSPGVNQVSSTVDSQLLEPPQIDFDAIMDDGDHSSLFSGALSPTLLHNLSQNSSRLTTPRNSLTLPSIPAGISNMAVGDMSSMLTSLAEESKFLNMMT

What was measured:
Assay in all cases: co-IP; 293T cells 24 h after transfection; lysis buffer 0.1 mM Tris-HCl pH 7.5, 0.3 M NaCl, 2% Nonidet P-40, 2 mM EDTA; cleared lysates with anti-HA or anti-FLAG M2 magnetic beads 2 h at 4°C; washed three times; western blotting
[1] = molecular target: Flag–Gli3 (Gli3^FL) (mouse) (UniProt Q61602)
Flag–Gli1 = Flag–Gli1 (UniProt P47806)
Flag–Gli2 = Flag–Gli2 (UniProt Q0VGT2)

binding [1]: binds | binding (Flag–Gli1): binds | binding (Flag–Gli2): binds
B1: HA–Sufu^T396I (protein, UniProt Q9Z0P7 1-484)
chain: MAELRPSVAPGPAAPPASGPSAPPAFASLFPPGLHAIYGECRRLYPDQPNPLQVTAIVKYWLGGPDPLDYVSMYRNMGSPSANIPEHWHYISFGLSDLYGDNRVHEFTGTDGPSGFGFELTFRLKRETGESAPPTWPAELMQGLARYVFQSENTFCSGDHVSWHSPLDNSESRIQHMLLTEDPQMQPVRTPFGVVTFLQIVGVCTEELHSAQQWNGQGILELLRTVPIAGGPWLITDMRRGETIFEIDPHLQERVDKGIETDGSNLSGVSAKCAWDDLSRPPEDEEDSRSICLGTQPRRLSGKDTEQIRETLRRGLEINSKPVLPPINSQRQNGLTHDRAPSRKDSLGSDSSTAIIPHELIRTRQLESVHLKFNQESGALIPLCLRGRLLHGRHFIYKSITGDMAITFVSTGVEGAFATEEHPYAAHGPWLQILLTEEFVEKMLEDLEDLTSPEEFKLPKEYSWPEKKLKVSILPDVVFDSPLH

binding [1]: binds | binding (Flag–Gli1): binds | binding (Flag–Gli2): binds
B2: HA–Sufu (wild-type Sufu) (protein, UniProt Q9Z0P7 1-484)
chain: B1 chain with I396T
